In patent US20260028400A1:
Where a chain is given by its changes, count along the chain named. Results are given in words; binding and its absence hold for the method and conditions named. Some binding calls cover weakened binding; strength is not graded here. Blank lines part the entries; values can stand above or below the binder they belong to.

The chains behind the UniProt entries cited, without tags or fusion partners. Residues count along the entry.
UniProt Q9Z139, residues 30-403: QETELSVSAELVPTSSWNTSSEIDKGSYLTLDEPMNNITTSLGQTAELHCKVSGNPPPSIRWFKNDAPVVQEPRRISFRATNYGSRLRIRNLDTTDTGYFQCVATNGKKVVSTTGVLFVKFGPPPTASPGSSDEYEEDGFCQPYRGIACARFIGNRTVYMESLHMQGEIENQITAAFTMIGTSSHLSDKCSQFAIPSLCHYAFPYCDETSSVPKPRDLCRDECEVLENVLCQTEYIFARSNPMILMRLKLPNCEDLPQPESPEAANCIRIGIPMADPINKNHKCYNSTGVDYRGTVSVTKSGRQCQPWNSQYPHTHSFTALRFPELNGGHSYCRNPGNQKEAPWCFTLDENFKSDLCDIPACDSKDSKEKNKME
human ROR1 (Q01973, residues 30-403): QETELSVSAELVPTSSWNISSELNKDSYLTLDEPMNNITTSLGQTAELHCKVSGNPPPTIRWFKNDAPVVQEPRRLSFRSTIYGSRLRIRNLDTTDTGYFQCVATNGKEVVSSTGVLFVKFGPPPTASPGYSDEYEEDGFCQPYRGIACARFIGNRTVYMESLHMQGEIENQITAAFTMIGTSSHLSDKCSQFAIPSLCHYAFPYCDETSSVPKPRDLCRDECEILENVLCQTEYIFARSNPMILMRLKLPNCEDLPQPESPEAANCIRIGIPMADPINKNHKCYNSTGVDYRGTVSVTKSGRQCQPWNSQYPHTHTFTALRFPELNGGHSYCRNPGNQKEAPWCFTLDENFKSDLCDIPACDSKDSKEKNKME
FZD+KRD (Q01973, residues 165-395): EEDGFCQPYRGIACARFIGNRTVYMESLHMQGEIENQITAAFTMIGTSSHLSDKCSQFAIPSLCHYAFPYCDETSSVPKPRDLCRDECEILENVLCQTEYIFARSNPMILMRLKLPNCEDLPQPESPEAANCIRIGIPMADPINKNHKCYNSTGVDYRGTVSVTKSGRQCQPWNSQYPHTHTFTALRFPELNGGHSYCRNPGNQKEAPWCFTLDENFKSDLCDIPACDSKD
KRD (Q01973, residues 308-395): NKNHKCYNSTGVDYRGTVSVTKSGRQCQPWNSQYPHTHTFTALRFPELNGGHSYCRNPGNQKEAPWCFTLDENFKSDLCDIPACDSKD

Assays:
[1] = biological target: mouse ROR1 (mouse) (UniProt Q9Z139); assay: ELISA, IgG on coated mouse ROR1, OD450
[2] = biological target: KRD (human) (UniProt Q01973); assay: ELISA, IgG on coated domain, OD450
[3] = biological target: human ROR1 (human) (UniProt Q01973); assay: SPR (Biacore 3000)
[4] = biological target: mouse ROR1 (mouse) (UniProt Q9Z139); assay: SPR (Biacore 3000)
[5] = biological target: human ROR1 (human) (UniProt Q01973); assay: ELISA, IgG on coated human ROR1, OD450
[6] = biological target: FZD+KRD (human) (UniProt Q01973); assay: scFv ELISA on coated domain, anti-HA-HRP, OD450
[7] = biological target: FZD+KRD (human) (UniProt Q01973); assay: ELISA, IgG on coated domain, OD450

binding [1]: binds | binding [2]: no binding (tested: 300 nM) | binding [3]: binds | binding [4]: binds | binding [5]: binds
B1: P015004 (antibody, V domains shown)
VH: EVQLLESGGGLVQPGGSLRLSCAASGFTFSDYAMAWVRQAPGKGLEWVSIIYPGDSETIYSPSFEGRFTISRDNSKNTLYLQMNSLRAEDTAVYYCARDTYWEGYFDLWGQGTLVTVSS
VL: EIVLTQSPGTLSLSPGERATLSCRASQGISNYLAWYQQKPGQAPRLLIYDASNLESGIPDRFSGSGSGTDFTLTISRLEPEDFAVYYCQQYANLPYTFGQGTKVEIK

binding [1]: binds | binding [2]: no binding (tested: 300 nM) | binding [3]: binds | binding [4]: binds | binding [5]: binds
B2: P015018 (antibody, V domains shown)
VH: EVQLLESGGGLVQPDGSMRLICAASGFTFSSYAKHWVRQAPGKGLEWVSEIYTSGSTNYNPSLKSRFTISRDNSKNTLYLQMNSLRAEDTAVYYCARDTWWEGYFDLWGQGTLVTVSS
VL: B1 VL with G28S, I29V, N31T, N53S, Y91S, A92Y, Y96H

binding [1]: binds | binding [2]: no binding (tested: 300 nM) | binding [3]: binds | binding [4]: binds | binding [5]: binds
B3: P015044 (antibody, V domains shown)
VH: EVQLLESGGGLVQPGGSLRLSCAASGFTFSNYAMHWVRQAPGKGLEWVSIIYPDDDTRYNPSFRGRFTISRDNSKNTLYLQMNSLRAEDTAVYYCARDLLYAGDYWGQGTLVTVSS
VL: QSVLTQPPSASGTPGQRVTISCGGNNIESKAVHWYQQLPGTAPKLLIYANNKRPSGVPDRFSGSKSGTSASLAISGLRSEDEADYYCQSYDSNKVVFGGGTKLTVL

binding [1]: binds | binding [3]: binds | binding [4]: binds | binding [5]: binds
B4: P015042v1 (antibody, V domains shown)
VH: EVQLLESGGGLVQPGGSLRLSCAASGFTFSDYAMSWVRQAPGKGLEWVSVISSDGGSIYYADSVKGRFTISRDNSKNTLYLQMNSLRAEDTAVYYCAKDRSRDMEVDFDYWGQGTLVTVSS
VL: QSVLTQPPSASGTPGQRVTISCSGSSSNIGSNYVTWYQQLPGTAPKLLIYDSSQRPSGVPDRFSGSKSGTSASLAISGLRSEDEADYYCGTWDYSLNGYVFGGGTKLTVL

binding [1]: binds | binding [2]: no binding (tested: 300 nM) | binding [3]: binds | binding [4]: binds | binding [5]: binds
B5: P015001 (antibody, V domains shown)
VH: EVQLLESGGGLAQPGGSLRLSCAASGFTFSNYDMSWVRQAPGKGPEWVSGIYSGNSNTYYADSVKGRFTISRDNSKNTLYLQMNSLRAEDTAVYYCARDLQYTEWAGFDYWGQGTLVTVSS
VL: B4 VL with Y33D, S52D, Q54K, G90A, T91A, Y94D, N97S

binding [6]: binds
B6: P015005 scFv (scFv, V domains shown)
VH: EVQLLESGGGLVQPGGSLRLSCAASGFTFSDYSMSWVRQAPGKGLEWVSGISHNGGSTYYADSVKGRFTISRDNSKNTLYLQMSSLRAEDTAVYYCARDVSRWSKTRWSYDNAMDVWGQGTLVTVSS
VL: B4 VL with T35N, D51S, S52D, Q54H, T91S, Y94S, G98A, F101L

binding [1]: binds | binding [2]: no binding (tested: 300 nM) | binding [3]: binds | binding [4]: binds | binding [5]: binds
B7: P015042 (antibody, V domains shown)
VH: B4 VH
VL: B4 VL with N97S

binding [1]: binds | binding [3]: binds | binding [4]: binds | binding [5]: binds
B8: P015042v1-4 (antibody, V domains shown)
VH: B4 VH
VL: B4 VL with S52K

binding [6]: binds
B9: P015006 scFv (scFv, V domains shown)
VH: EVQLLESGGGLVQPGGSLRLSCAASGFTFSNYSMSWVRQAPGKGLEWVSAISHGSGSIYYADSVKGRFTISRDNSKNTLYLQMNSLRAEDTAVYYCAKPISAWSHIRMSYAYGMDVWGQGTLVTVSS
VL: B4 VL with S23T, T35S, Q38R, D51S, S52D, Q54N, G90A, Y94A, N97S, G98A

binding [6]: binds
B10: P015013 scFv (scFv, V domains shown)
VH: EVQLLESGGGLVQPGGSLRLSCAASGFTFSSYDMSWVRQVPGKGLEWVSWISHGGGSIYYADSVKGRFTISRDNSKNTLYLQMNSLRAEDTAVYYCARDLSNRLFTGFDYWGQGTLVAVSS
VL: B4 VL with Y33S, T35Y, L47P, D51S, S52D, Q54H, G98A

binding [1]: binds | binding [7]: binds | binding [2]: no binding (tested: 300 nM) | binding [3]: binds | binding [4]: binds | binding [5]: binds
B11: P015012 (antibody, V domains shown)
VH: EVQLLESGGGLVQPGGSLRLSCAASGFTFSGYSMSWVRQAPGKGLEWVSGISYGGSSISYADSVKGRFTISRDNSKNTLYLQMNSLRAEDTAVYYCAKPVRRWARFRLSYDDAMDVWGQGTLVTVSS
VL: B4 VL with S31N, Y33A, T35N, D51A, S52N, Q54H, Y94S, N97S

binding [1]: binds | binding [3]: binds | binding [4]: binds | binding [5]: binds
B12: P015042v1-6 (antibody, V domains shown)
VH: B4 VH with G55K
VL: B4 VL with S52K, G98A

binding [1]: binds | binding [3]: binds | binding [4]: binds | binding [5]: binds
B13: P015042v1-1 (antibody, V domains shown)
VH: B4 VH with G55V
VL: B4 VL

binding [6]: binds
B14: P015011 scFv (scFv, V domains shown)
VH: EVQLLESGGGLVQPGGSLRLSCAASGFTFSNYAMSWVRQAPGKGLEWVSGISPDGGSIYYADSVKGRFTISRDNSKNTLYLQMNSLRAEDTAVYYCAKAARLSPSMNYSYAYGMDVWGQGTLVTVSS
VL: B4 VL with S23T, S31N, T35S, D51S, S52D, Q54H

binding [6]: binds
B15: P015007 scFv (scFv, V domains shown)
VH: B11 VH
VL: B4 VL with S31N, Y33A, T35N, D51A, S52D, Q54H, Y94S

binding [6]: binds
B16: P015009 scFv (scFv, V domains shown)
VH: EVQLLESGGGLVQPGGSLRLSCAASGFTFSNYSMSWVRQAPGKGLEWVSGIYSGNSNTYYADSVKGRFTISRDNSKNTLYLQMNSLRAEDTAVYYCAKDSRATHHRWHYYDNAMDVWGQGTLVTVSS
VL: B4 VL with S23T, T35S, Q38R, D51S, S52D, Q54N, Y94S, N97S

binding [1]: binds | binding [7]: binds | binding [2]: no binding (tested: 300 nM) | binding [3]: binds | binding [4]: binds | binding [5]: binds
B17: P015005 (antibody, V domains shown)
VH: B6 VH
VL: B4 VL with T35N, D51S, S52D, Q54H, T91S, Y94S, G98A, F101L

binding [1]: binds | binding [3]: binds | binding [4]: binds | binding [5]: binds
B18: P015042v1-3 (antibody, V domains shown)
VH: B4 VH
VL: B4 VL with S52A

binding [1]: binds | binding [3]: binds | binding [4]: binds | binding [5]: binds
B19: P015042v1-5 (antibody, V domains shown)
VH: B4 VH
VL: B4 VL with G98A

binding [6]: binds
B20: P015012 scFv (scFv, V domains shown)
VH: B11 VH
VL: B4 VL with S31N, Y33A, T35N, D51A, S52N, Q54H, Y94S, N97S

binding [6]: binds
B21: P015002 scFv (scFv, V domains shown)
VH: B6 VH
VL: B4 VL with S23T, T35S, Q38R, D51S, S52D, Q54N, G90A, Y94A, N97S, G98A

binding [2]: no binding (tested: 300 nM)
B22: P015043 (antibody, V domains shown)
VH: EVQLLESGGGLVQPGGSLRLSCAASGFTFSNYDMSWVRQAPGKGLEWVSWISPGGSSIYYADSVKGRFTISRDNSKNTLYLQMNSLRAEDTAVYYCAKTLTRFDYWGQGTLVTVSS
VL: B4 VL with S23T, S31N, Y33N, T35S, D51Y, S52D, Q54H, Y94S, N97S

binding [1]: binds | binding [3]: binds | binding [4]: binds | binding [5]: binds
B23: P015042v1-2 (antibody, V domains shown)
VH: B4 VH with G55K
VL: B4 VL
